Experimental data taken from publication doi:10.1101/2021.12.23.473985.
No constants are given. Whether binding was seen depends on the method and setting.

Target: cytochrome b561 (CybB) from E. coli, superoxide:quinone oxidoreductase (E. coli) (UniProt P0ABE5)
Experiment: SEC

B1: cytochrome b561 (CybB) from E. coli, superoxide:quinone oxidoreductase (enzyme, UniProt P0ABE5 1-176)
chain: MENKYSRLQISIHWLVFLLVIAAYCAMEFRGFFPRSDRPLINMIHVSCGISILVLMVVRLLLRLKYPTPPIIPKPKPMMTGLAHLGHLVIYLLFIALPVIGLVMMYNRGNPWFAFGLTMPYASEANFERVDSLKSWHETLANLGYFVIGLHAAAALAHHYFWKDNTLLRMMPRKRS
binding: no binding
